Measurements taken from article doi:10.1101/2023.08.22.554280.
Results are given in words; binding and its absence hold for the method and conditions named. Binding seen in cells or lysates may run through a third protein. These calls come from enrichment with a bait or labelling near it, and not all partners need be listed. For some assays here: Sequences can lack the tags named with a protein.

The chains behind the UniProt entries cited, without tags or fusion partners.
UniProt P48634: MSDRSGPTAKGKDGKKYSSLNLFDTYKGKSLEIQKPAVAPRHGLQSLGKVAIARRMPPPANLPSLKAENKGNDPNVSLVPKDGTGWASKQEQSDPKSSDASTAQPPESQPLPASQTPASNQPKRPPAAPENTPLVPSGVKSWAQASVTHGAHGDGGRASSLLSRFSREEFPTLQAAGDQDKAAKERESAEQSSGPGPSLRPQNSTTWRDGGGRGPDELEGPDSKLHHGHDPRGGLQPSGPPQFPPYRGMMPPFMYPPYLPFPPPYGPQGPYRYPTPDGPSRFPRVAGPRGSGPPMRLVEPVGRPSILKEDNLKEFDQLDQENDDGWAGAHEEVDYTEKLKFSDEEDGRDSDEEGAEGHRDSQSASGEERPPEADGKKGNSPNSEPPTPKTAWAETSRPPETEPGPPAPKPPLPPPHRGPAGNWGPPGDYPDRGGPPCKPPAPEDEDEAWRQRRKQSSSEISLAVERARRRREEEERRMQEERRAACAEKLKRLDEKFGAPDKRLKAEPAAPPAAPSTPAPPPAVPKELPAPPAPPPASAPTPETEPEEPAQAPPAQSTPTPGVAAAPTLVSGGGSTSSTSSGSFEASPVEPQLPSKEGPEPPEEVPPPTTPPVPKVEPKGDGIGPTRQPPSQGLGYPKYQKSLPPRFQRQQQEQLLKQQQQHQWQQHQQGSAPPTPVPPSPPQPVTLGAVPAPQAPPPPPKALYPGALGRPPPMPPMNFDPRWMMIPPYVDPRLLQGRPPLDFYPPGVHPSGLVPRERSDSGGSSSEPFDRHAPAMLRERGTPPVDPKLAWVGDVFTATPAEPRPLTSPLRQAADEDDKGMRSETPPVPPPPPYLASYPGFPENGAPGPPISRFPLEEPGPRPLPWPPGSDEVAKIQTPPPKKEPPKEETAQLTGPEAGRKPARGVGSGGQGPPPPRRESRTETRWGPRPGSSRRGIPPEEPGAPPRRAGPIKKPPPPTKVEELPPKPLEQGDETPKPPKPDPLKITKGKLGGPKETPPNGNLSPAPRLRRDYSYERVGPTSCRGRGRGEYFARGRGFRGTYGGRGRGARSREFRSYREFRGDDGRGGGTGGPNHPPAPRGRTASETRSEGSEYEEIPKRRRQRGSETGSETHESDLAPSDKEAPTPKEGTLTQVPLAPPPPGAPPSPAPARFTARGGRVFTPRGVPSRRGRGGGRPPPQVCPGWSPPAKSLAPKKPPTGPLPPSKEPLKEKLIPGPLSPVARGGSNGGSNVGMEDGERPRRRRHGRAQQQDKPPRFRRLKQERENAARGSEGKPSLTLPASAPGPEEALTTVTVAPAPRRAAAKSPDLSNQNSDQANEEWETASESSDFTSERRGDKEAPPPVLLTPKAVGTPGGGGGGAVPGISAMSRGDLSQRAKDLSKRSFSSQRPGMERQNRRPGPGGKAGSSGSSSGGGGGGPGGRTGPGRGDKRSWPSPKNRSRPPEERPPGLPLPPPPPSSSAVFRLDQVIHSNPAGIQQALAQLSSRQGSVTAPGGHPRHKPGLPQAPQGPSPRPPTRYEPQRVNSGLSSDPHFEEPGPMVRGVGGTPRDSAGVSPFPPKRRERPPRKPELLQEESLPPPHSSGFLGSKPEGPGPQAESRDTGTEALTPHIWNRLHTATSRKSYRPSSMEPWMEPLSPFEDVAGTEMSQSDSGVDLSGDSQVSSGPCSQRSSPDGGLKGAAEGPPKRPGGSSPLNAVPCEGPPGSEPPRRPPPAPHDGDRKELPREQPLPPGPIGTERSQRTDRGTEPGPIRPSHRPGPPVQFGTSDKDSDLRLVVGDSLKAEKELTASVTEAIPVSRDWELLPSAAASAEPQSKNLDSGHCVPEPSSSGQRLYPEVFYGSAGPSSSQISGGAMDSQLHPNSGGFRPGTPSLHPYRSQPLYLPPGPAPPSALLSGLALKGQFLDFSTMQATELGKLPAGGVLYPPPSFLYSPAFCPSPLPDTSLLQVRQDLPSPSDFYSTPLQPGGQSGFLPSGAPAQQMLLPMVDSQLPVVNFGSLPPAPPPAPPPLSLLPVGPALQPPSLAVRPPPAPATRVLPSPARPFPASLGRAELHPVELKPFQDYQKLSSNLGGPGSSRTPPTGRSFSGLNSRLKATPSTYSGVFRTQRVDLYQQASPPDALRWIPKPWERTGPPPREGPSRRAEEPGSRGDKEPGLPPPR
UniProt Q8N3C0: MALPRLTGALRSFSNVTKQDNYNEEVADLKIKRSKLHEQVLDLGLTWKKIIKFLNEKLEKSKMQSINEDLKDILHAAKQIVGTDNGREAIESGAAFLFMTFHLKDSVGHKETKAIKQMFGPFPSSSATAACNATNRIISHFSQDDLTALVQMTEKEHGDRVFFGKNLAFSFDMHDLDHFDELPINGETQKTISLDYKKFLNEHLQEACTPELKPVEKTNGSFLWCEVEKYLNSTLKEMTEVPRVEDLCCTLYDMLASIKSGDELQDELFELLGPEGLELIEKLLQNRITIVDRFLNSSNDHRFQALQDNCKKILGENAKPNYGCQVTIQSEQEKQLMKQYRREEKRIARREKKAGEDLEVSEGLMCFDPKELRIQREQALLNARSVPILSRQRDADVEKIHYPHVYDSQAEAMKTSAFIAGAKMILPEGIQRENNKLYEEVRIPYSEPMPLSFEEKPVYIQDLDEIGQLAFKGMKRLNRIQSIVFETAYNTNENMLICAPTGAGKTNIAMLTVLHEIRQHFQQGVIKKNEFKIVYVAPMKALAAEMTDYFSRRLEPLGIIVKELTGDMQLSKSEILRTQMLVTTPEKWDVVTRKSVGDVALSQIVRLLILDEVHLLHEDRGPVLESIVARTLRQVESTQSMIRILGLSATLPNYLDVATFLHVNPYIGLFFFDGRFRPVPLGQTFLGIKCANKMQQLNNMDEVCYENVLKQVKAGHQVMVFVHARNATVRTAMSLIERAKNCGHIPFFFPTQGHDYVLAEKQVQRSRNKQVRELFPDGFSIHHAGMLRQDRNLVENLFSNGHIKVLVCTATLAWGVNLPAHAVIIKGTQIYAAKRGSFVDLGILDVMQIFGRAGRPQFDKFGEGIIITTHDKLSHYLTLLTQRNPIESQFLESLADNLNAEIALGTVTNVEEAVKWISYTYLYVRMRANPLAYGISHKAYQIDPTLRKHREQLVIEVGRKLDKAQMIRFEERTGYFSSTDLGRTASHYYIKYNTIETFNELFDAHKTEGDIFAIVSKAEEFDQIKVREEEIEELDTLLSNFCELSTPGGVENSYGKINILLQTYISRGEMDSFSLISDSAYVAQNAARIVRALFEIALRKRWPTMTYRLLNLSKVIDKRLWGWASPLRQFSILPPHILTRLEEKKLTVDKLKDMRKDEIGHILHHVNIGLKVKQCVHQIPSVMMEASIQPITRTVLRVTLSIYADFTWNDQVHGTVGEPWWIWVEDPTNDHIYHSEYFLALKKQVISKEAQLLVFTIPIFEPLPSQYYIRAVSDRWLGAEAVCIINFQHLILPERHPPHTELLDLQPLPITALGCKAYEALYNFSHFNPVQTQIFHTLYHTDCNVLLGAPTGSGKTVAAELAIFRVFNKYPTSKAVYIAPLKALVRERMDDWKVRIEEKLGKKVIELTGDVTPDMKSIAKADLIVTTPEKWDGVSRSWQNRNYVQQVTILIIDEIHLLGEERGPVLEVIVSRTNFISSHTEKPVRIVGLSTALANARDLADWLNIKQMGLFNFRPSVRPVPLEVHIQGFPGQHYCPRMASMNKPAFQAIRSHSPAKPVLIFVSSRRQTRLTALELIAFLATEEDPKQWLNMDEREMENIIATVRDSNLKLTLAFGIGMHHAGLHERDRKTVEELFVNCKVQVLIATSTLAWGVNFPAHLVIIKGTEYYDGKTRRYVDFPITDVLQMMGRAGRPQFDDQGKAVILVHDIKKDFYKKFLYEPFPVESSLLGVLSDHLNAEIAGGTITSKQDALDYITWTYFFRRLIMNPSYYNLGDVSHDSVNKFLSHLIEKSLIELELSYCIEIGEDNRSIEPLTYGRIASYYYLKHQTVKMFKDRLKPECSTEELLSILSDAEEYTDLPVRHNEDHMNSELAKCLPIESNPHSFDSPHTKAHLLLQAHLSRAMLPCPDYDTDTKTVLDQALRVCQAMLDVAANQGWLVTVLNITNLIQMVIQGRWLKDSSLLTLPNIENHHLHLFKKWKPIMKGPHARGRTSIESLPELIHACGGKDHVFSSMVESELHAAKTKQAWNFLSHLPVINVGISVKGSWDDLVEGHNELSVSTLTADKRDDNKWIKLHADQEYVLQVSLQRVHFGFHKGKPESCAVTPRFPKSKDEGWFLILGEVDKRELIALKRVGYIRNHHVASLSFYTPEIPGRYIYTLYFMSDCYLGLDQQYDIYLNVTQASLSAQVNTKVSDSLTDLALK
UniProt O75822: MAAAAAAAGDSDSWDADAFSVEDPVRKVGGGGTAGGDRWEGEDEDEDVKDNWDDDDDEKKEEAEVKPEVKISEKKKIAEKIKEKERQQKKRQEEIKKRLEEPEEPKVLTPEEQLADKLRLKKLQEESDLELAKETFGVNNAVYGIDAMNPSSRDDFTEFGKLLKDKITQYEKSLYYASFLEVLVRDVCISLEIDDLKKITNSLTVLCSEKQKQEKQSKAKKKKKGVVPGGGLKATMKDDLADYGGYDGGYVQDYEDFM
UniProt Q86US8: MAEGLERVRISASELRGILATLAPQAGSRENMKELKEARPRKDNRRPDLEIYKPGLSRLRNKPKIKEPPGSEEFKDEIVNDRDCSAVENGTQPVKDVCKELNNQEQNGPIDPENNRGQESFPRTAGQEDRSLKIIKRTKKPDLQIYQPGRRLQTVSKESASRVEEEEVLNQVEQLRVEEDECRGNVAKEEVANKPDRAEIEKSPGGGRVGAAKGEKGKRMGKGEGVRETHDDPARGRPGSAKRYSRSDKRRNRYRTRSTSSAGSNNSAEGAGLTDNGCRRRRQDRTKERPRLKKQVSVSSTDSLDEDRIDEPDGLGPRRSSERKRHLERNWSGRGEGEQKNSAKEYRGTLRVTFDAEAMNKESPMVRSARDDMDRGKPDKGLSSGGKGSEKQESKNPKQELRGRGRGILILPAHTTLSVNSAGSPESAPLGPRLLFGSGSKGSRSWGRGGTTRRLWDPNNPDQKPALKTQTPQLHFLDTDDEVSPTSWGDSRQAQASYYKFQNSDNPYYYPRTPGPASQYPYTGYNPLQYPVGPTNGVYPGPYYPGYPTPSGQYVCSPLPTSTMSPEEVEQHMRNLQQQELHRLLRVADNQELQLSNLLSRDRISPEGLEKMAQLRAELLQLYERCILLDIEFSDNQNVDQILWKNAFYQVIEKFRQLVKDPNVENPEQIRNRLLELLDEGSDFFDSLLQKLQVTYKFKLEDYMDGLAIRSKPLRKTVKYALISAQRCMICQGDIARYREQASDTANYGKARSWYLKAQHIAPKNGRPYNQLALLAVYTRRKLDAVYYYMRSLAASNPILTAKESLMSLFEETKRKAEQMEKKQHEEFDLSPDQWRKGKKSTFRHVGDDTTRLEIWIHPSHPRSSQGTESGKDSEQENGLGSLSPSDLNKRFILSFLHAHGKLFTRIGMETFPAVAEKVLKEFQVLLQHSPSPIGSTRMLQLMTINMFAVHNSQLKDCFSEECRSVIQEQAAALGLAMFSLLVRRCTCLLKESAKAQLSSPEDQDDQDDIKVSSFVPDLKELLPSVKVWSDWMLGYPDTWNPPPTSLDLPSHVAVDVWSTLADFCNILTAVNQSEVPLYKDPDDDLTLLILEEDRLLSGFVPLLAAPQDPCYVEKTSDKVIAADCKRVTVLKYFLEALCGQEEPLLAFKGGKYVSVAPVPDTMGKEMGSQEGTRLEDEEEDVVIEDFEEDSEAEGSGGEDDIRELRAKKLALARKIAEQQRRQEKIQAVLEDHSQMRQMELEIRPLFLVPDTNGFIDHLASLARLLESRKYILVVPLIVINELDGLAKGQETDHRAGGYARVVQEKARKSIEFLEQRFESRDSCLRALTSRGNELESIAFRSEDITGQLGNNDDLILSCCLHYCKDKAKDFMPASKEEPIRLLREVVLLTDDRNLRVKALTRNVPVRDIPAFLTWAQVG

Tests used:
[1] = target: Flag-tagged EIF4G2 WT (human) (UniProt P78344); assay: affinity purification with mass spectrometry
[2] = target: T1, Flag-tagged EIF4G2 WT (human), P78344; assay: affinity purification with mass spectrometry; details: remark: other sources report otherwise
T1 chain: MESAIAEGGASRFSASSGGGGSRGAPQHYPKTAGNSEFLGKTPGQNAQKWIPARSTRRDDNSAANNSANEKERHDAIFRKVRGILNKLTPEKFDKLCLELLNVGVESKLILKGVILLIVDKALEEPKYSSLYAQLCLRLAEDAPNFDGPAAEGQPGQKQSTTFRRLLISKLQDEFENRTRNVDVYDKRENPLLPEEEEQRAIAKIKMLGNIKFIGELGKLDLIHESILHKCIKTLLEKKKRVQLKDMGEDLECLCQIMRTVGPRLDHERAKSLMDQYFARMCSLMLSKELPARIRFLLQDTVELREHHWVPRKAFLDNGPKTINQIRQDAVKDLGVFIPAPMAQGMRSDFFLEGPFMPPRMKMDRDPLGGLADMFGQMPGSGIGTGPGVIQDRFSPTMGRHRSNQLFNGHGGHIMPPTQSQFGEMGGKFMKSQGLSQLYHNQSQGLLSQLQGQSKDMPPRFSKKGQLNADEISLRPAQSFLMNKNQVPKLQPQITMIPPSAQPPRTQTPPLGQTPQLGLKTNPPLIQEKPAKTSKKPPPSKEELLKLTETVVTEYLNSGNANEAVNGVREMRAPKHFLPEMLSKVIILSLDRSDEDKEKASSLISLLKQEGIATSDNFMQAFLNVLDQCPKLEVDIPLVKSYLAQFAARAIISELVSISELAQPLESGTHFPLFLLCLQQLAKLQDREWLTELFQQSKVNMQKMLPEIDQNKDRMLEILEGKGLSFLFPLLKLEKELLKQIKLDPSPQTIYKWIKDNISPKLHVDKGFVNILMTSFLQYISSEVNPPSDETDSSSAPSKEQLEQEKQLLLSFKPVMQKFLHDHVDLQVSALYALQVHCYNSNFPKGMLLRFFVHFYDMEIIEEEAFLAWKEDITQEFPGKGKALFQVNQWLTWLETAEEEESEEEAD

| Molecule | binding [1] | binding [2] |
| --- | --- | --- |
| PRRC2A (from UniProt P48634 1-2157) | binds | – |
| PRRC2C (from UniProt Q9Y520 1-2896) | binds | – |
| ASCC3 (from UniProt Q8N3C0 1-2202) | binds | – |
| EIF3J (from UniProt O75822 1-258) | binds | – |
| SMG6 (from UniProt Q86US8 1-1419) | binds | – |
| ASCC2 (protein, UniProt Q9H1I8 1-757) MPALPLDQLQITHKDPKTGKLRTSPALHPEQKADRYFVLYKPPPKDNIPALVEEYLERATFVANDLDWLLALPHDKFWCQVIFDETLQKCLDSYLRYVPRKFDEGVASAPEVVDMQKRLHRSVFLTFLRMSTHKESKDHFISPSAFGEILYNNFLFDIPKILDLCVLFGKGNSPLLQKMIGNIFTQQPSYYSDLDETLPTILQVFSNILQHCGLQGDGANTTPQKLEERGRLTPSDMPLLELKDIVLYLCDTCTTLWAFLDIFPLACQTFQKHDFCYRLASFYEAAIPEMESAIKKRRLEDSKLLGDLWQRLSHSRKKLMEIFHIILNQICLLPILESSCDNIQGFIEEFLQIFSSLLQEKRFLRDYDALFPVAEDISLLQQASSVLDETRTAYILQAVESAWEGVDRRKATDAKDPSVIEEPNGEPNGVTVTAEAVSQASSHPENSEEEECMGAAAAVGPAMCGVELDSLISQVKDLLPDLGEGFILACLEYYHYDPEQVINNILEERLAPTLSQLDRNLDREMKPDPTPLLTSRHNVFQNDEFDVFSRDSVDLSRVHKGKSTRKEENTRSLLNDKRAVAAQRQRYEQYSVVVEEVPLQPGESLPYHSVYYEDEYDDTYDGNQVGANDADSDDELISRRPFTIPQVLRTKVPREGQEEDDDDEEDDADEEAPKPDHFVQDPAVLREKAEARRMAFLAKKGYRHDSSTAVAGSPRGHGQSRETTQERRKKEANKATRANHNRRTMADRKRSKGMIPS | binds | – |
| TSR1 (protein, UniProt Q2NL82 1-804) MAAHRPGPLKQQNKAHKGGRHRGRGSAQRDGKGRLALKTLSKKVRKELSRVDQRHRASQLRKQKKEAVLAEKRQLGGKDGPPHQVLVVPLHSRISLPEAMQLLQDRDTGTVHLNELGNTQNFMLLCPRLKHRWFFTSARPGDLHVVLDMAKVADTILFLLDPLEGWDSTGDYCLSCLFAQGLPTYTLAVQGISGLPLKKQIDTRKKLSKAVEKRFPHDKLLLLDTQQEAGMLLRQLANQKQQHLAFRDRRAYLFAHAVDFVPSEENNLVGTLKISGYVRGQTLNVNRLLHIVGYGDFQMKQIDAPGDPFPLNPRGIKPQKDPDMAMEICATDAVDDMEEGLKVLMKADPGRQESLQAEVIPDPMEGEQTWPTEEELSEAKDFLKESSKVVKKVPKGTSSYQAEWILDGGSQSGGEGDEYEYDDMEHEDFMEEESQDESSEEEEEYETMTIGESVHDDLYDKKVDEEAEAKMLEKYKQERLEEMFPDEVDTPRDVAARIRFQKYRGLKSFRTSPWDPKENLPQDYARIFQFQNFTNTRKSIFKEVEEKEVEGAEVGWYVTLHVSEVPVSVVECFRQGTPLIAFSLLPHEQKMSVLNMVVRRDPGNTEPVKAKEELIFHCGFRRFRASPLFSQHTAADKHKLQRFLTADMALVATVYAPITFPPASVLLFKQKSNGMHSLIATGHLMSVDPDRMVIKRVVLSGHPFKIFTKMAVVRYMFFNREDVLWFKPVELRTKWGRRGHIKEPLGTHGHMKCSFDGKLKSQDTVLMNLYKRVFPKWTYDPYVPEPVPWLKSEISSTVPQGGME | binds | – |
| PDCD4, Q53EL6 1-469 (protein) MDVENEQILNVNPADPDNLSDSLFSGDEENAGTEEIKNEINGNWISASSINEARINAKAKRRLRKNSSRDSGRGDSVSDSGSDALRSGLTVPTSPKGRLLDRRSRSGKGRGLPKKGGAGGKGVWGTPGQVYDVEEVDVKDPNYDDDQENCVYETVVLPLDERAFEKTLTPIIQEYFEHGDTNEVAEMLRDLNLGEMKSGVPVLAVSLALEGKASHREMTSKLLSDLCGTVMSTTDVEKSFDKLLKDLPELALDTPRAPQLVGQFIARAVGDGILCNTYIDSYKGTVDCVQARAALDKATVLLSMSKGGKRKDSVWGSGGGQQSVNHLVKEIDMLLKEYLLSGDISEAEHCLKELEVPHFHHELVYEAIIMVLESTGESTFKMILDLLKSLWKSSTITVDQMKRGYERIYNEIPDINLDVPHSYSVLERFVEECFQAGIISKQLRDLCPSRGRKRFVSEGDGGRLKPESY | – | binds |
